A short description of data set [1]: Lipophilicity, log D of the compound. The settings on record: octanol/water.
The next data set in a line: physchem. The settings on record: buffer, pH 4.3.

Converted amounts (≈) assume the structure as drawn.

`CS(=O)(=O)NCc1noc([C@H](CCCC2CCCCC2)CC(=O)NO)n1` registered a logD in data set [1] of 2.3. Moreover, the solubility in “physchem” was 4560 µg/mL (≈ 11.7 mM).

A word on the logD: it is the decadic logarithm of the distribution of all forms, ionised or not, between an organic phase and buffer at a given pH. Broadly, the solubility is the concentration that dissolves in the medium under given conditions.

Source of the values: ChEMBL document CHEMBL1146210, “Potent and selective nonpeptidic inhibitors of procollagen C-proteinase” (J Med Chem, 2007).
